PubChem BioAssay AID588497 (NMMLSC, 2011)
Where “and” joins values, the source holds several entries; their conditions need not be identical. Identical values can stand only once. The whole screen tested about 360,000 compounds, of which about 780 (0.22%) were called active. Inconclusive means that the source gave no clear call. Such entries were picked first, then a sample of the others. Rule as the data show it: active = inhibition above about 35% (passing the limit was not always enough); inconclusive = no clear call, values can overlap the other calls.

system: Botulinum neurotoxin type F light chain protease (Clostridium botulinum); test: BoNT/F light chain protease inhibitors, primary screen, biochemical, flow cytometry, MLPCN library (AID 588497); settings: Multiplex microsphere protease cleavage assay, at 10 µM, hits give high values; also: plate controls were buffer without enzyme for full effect and enzyme alone for no effect

Row | SMILES | inhibition
1 | Cc1cccc(C)c1NC(=O)C[n+]1cc(-c2ccccc2)n2c1CCC2 | inconclusive: 18.1%
2 | Cc1ccc(C)n1CCN1CCN(C(=O)c2ccc(Cl)cc2)CC1 | inconclusive: -34.9%
3 | N#C/C(=C/c1ccc(N2CCCCC2)o1)C(=O)Nc1ccc(Cl)cc1 | active: 36.5%
4 | CCN(CC)C(=O)C1=C(C)N(CCCN2CCCC2=O)C(=O)C(CC(=O)NCc2cccs2)C1 (centres undefined) | inactive: 1.1%
5 | COc1cc(OC)c(CN2CCc3c([nH]c4ccccc34)C2)cc1Br | inconclusive: -71.3%
6 | CC(C)OC(=O)CSc1nnc(-c2ccc(C(C)(C)C)cc2)n1N | inactive: -23%
7 | COC(=O)CN(c1ccccc1)S(=O)(=O)c1ccccc1 | inactive: -23.1%
8 | CC(=NCCc1ccccc1)c1c(O)n(C)c(=O)n(C)c1=O | inconclusive: -10.4%
9 | CC1(C(=O)NS(=O)(=O)Cc2ccccc2C(F)(F)F)CCN1C(=O)Cc1ccccc1 (centres undefined) | inactive: -2.5%
10 | CCCN(CCC)CCCNC(=O)c1cc2c(=O)n(CC)c3ccccc3c2s1 | inactive: -5%
11 | CC1CCN(CC(=O)Nc2nccs2)CC1 | inconclusive: -13.2%
12 | COc1ccc(Nc2nc(N)c([N+](=O)[O-])c(NC3CCCCC3)n2)cc1 | inconclusive: 0.8%
13 | COc1ccc(-c2c(C#N)c(N)nc(Sc3ccc(Cl)cc3)c2C#N)cc1 | inconclusive: 18.5%
14 | COc1cccc(-c2cc(C(=O)Nc3ccccc3SC)no2)c1 | inactive: -1.4%
15 | Cc1cccc(-c2n[nH]c(=S)n2/N=C/c2ccco2)c1 | inconclusive: -88.8%
16 | Nc1ncnc2c1ncn2[C@@H]1O[C@H](C(=O)N[C@H]2c3ccccc3C[C@H]2O)[C@@H](O)[C@H]1O | inactive: 8.3%
17 | Oc1ccc(/C=N/n2c(-c3ccccc3)n[nH]c2=S)cc1Br | inconclusive: 4.1%
18 | CCOC(=O)c1cnc2ccccc2c1NCc1ccco1 | inconclusive: 1%
19 | CC(=O)NC(=O)c1cnn(-c2ccccc2)c1N | inconclusive: 11.1%
20 | Oc1ccc(CN2CCN(Cc3ccccc3)CC2)c2cccnc12 | inactive: -33.3%
21 | COc1ccc(NC(=O)Cn2nc3n(c2=S)CCC3)cc1 | inconclusive: -24%
22 | C=C1N(C)c2cc([N+](=O)[O-])c(N)cc2C1(C)C | inconclusive: -78.7%
23 | COc1ccc(C(=O)OCC(=O)Nc2ccc(OC(F)F)cc2)c(OC)c1 | inactive: 2.4%

Row | SMILES | inhibition
24 | CCn1c(SCC(=O)N2c3ccccc3CCc3ccccc32)nc2c1c(=O)n(C)c(=O)n2C | inactive: 6.3%
25 | O=C(NC1CC1)c1nc2c(nnn2Cc2ccccc2Cl)c(=O)[nH]1 | inactive: 2.5%
26 | CC(C)CCNc1nc(N)c([N+](=O)[O-])c(NCCO)n1 | inconclusive: -28.4%
27 | CC(=O)Nc1ccc(N/C=C2/CCCC2=O)cc1 | inconclusive: 6.4%
28 | COc1cc(OC)c(OC)cc1/C=N/NC(=O)c1ccc2nc[nH]c2c1 | inconclusive: 152%
29 | Fc1cccc(Cc2c(-c3ccc(Cl)cc3)nc3c(Cl)cc(C(F)(F)F)cn23)c1 | inactive: -4.7%
30 | CCCC1C2C(=O)N(c3cccc(C)c3)C(=O)C2ON1c1ccccc1 (centres undefined) | inconclusive: -30.6%
31 | CN(C)S(=O)(=O)c1cccc(NC(=O)c2cccc(N3C(=O)CCC3=O)c2)c1 | inconclusive: -7.9%
32 | CCCc1cc(=O)[nH]c(SCC(=O)Nc2ccc(OCc3ccccc3)cc2)n1 | inactive: 3%
33 | CC1(C)CCCC2(C)C(OCCO)=CC(=O)C=C12 (centres undefined) | inactive: -5.4%
34 | Cc1ccnc(NCc2cc(C)ccc2O)c1 | inconclusive: 5.3%
35 | CCCc1cc(=O)[nH]c(SCC(=O)N2CCOCC2)n1 | inactive: 15.6%
36 | COc1ccc(CNCC(O)(c2ccc(Cl)cc2)c2ccc(Cl)cc2)cc1OC | inactive: -22.1%
37 | O=c1oc(/C=C/c2ccc([N+](=O)[O-])s2)nc2ccccc12 | inconclusive: -10.1%
38 | CC(C)CNc1ncnc2c1ncn2[C@H]1CN(Cc2ccc(C(=O)O)cc2)C[C@@H](CO)O1 | inactive: 5.3%
39 | O=C(O)C1CCCN(S(=O)(=O)c2ccc(-c3ccc(=O)[nH]n3)s2)C1 (centres undefined) | inactive: 6.3%
40 | CC(=O)Nc1ccc2nc3c(=O)n(C)c(=O)n(C)c3nc2c1 | inconclusive: 57.4%
41 | CCOc1ccc(N2C(=O)/C(=C/c3ccco3)C(=O)NC2=S)cc1 | active: 47%
42 | CC(C)(C)OC(=O)CNC(=O)c1[nH]cnc1C(=O)NC1CCNCC1 | inactive: -7.4%
43 | Cn1ncc2c(Nc3cccc(Cl)c3)nc(Nc3cccc(Cl)c3)nc21 | inconclusive: -10.8%
44 | COc1ccc(Cc2nnc(NC(=O)C3CC(=O)N(c4ccc(OC)cc4)C3)s2)cc1 (centres undefined) | inactive: 6%
45 | CCOCCc1nnc(NC(=O)CCC2CCCCC2)s1 | inconclusive: -10.4%
46 | CCCSc1nc(SCC(=O)NCc2ccccc2)c2c3c(sc2n1)COC(C)(CC)C3 (centres undefined) | inconclusive: 3.4%

Row | SMILES | inhibition
47 | CC(C)/C=C/CN1CCCC(N2CCN(c3cccc(Cl)c3)CC2)C1 (centres undefined) | inconclusive: -33.6%
48 | COc1cc(/C=C2\SC(=S)N(CC(=O)O)C2=O)ccc1OS(=O)(=O)c1ccc(C)cc1 | inactive: -8.8%
49 | Cc1ccc(C(=O)N/C(=C\c2ccc([N+](=O)[O-])cc2)C(=O)NCCc2ccccc2)cc1 | inactive: -5.8%
50 | COc1cc(NC(=O)c2ccc(-c3cn[nH]c3)c3ccoc23)cc(OC)c1OC | inactive: -2.9%
51 | CCOc1ccccc1C1c2[nH]c3ccccc3c2C[C@H]2C(=O)N(C3CC3)CC(=O)N12 (some centres undefined) | inconclusive: 18.1%
52 | O=C(CN1C(=O)C2C3CCC(C3)C2C1=O)N1CCN(Cc2ccccc2)CC1 (centres undefined) | inactive: 2.2%
53 | CCc1nc2c(sc3nc4c(cc32)COC(C)(C)C4)c(=O)n1Cc1ccco1 | inconclusive: -25.5%
54 | CCC1(c2ccc(F)cc2)NC(=O)N(CC(=O)Nc2ccc(C)c(S(=O)(=O)N3CCOCC3)c2)C1=O (centres undefined) | inactive: -1.6%
55 | CC1Nc2ccccc2C(=O)N1NC(=O)c1ccc(Br)cc1 (centres undefined) | inactive: -5.2%
56 | N#Cc1c(NC(=O)c2ccc(-c3ccccc3[N+](=O)[O-])o2)sc2c1CCCC2 | inactive: 9%
57 | c1ccc(-c2nnc(SCc3nc4ccccc4[nH]3)n2Cc2ccco2)nc1 | inactive: -8.5%
58 | CCN(CC)C(=O)c1cc2c(=O)n3ccccc3nc2s1 | inactive: -5.6%
59 | Cc1nonc1NC(=O)CSc1nnc(-c2ccoc2C)n1CC(C)C | inconclusive: 2.3%
60 | COc1ccc(C(=O)Nc2cc(C)on2)cc1 | inactive: 1.5%
61 | COc1ccc(O)c(/C=N/NC(=O)CCC(=O)Nc2cccc(C)c2)c1 | inconclusive: 12.2%
62 | CCOC(=O)C1=C(N)OC2=C(C(=O)CCC2)C12C(=O)N(C)c1ccccc12 (centres undefined) | inconclusive: 130%
63 | O=C(c1ccc(F)cc1)N1CCCC(C(=O)N2CCc3ccccc3C2)C1 (centres undefined) | inconclusive: -40.5%
64 | CN(Cc1ccccc1)S(=O)(=O)c1ccc(Cl)c(C(=O)OCC(N)=O)c1 | inactive: 2.6%
65 | Cc1nc2c(C(=O)NCc3ccc4c(c3)OCO4)cnn2c(C)c1Cc1ccc(F)cc1Cl | inactive: -10%
66 | COC(=O)c1cccc(NC(=O)CSc2nc(=O)cc(N)n2-c2ccccc2)c1 | inactive: -0.1%
67 | COC(=O)CC1C(=O)NCCN1C(=S)Nc1ccc(F)cc1 (centres undefined) | inconclusive: 34.5%
68 | C#CCOc1ccc(C2C(C#N)=C(N)Oc3cc(O)ccc32)cc1 (centres undefined) | inconclusive: 31.7%
69 | CCOc1ccccc1Nc1nc(-c2cccnc2)cs1 | inconclusive: -47.6%

Row | SMILES | inhibition
70 | COc1ccc(C2NC(=O)N(C)C(C)=C2[N+](=O)[O-])cc1 (centres undefined) | inconclusive: -5.1%
71 | CCOC(=O)c1ccccc1NC(=O)COC(=O)CN1C(=O)NC2(CCCC2)C1=O | inactive: -5.5%
72 | N#Cc1c(F)cccc1N1CCC(C#N)CC1 | inconclusive: -99.7%
73 | CN(C)c1cccc(Oc2nc3c(c(=O)n(C)c(=O)n3C)n2C)c1 | inconclusive: -2%
74 | CCOc1ccc(NC(=O)Cc2ccc(S(=O)(=O)N3CCCCC3)cc2)cc1OCC | inconclusive: -20.2%
75 | CSc1nnc(CCCCCNC(=O)OC(C)(C)C)o1 | inconclusive: 10.1%
76 | COc1cc(C(=S)N2CCOCC2)cc(OC)c1OC | inconclusive: 10.3%
77 | CC(Sc1nnc(C2CC2)n1C)C(=O)Nc1ccc2c(c1)CCC2 (centres undefined) | inactive: -5.1%
78 | Cc1ccc(S(=O)(=O)n2c(C)nc3cc(C)ccc32)cc1 | inconclusive: 7.5%
79 | CSCCCN1CC[C@@H](N2CCN(c3ccccc3F)CC2)[C@H](O)C1 | inconclusive: -8%
80 | COc1cccc2c1C(=O)O/C2=C/c1ccc2c(c1)OCO2 | inactive: 5.7%
81 | Cc1ccc2nc(-c3ccc(C#N)cc3)c(Cc3ccccc3)n2c1 | inactive: 3.5%
82 | O=C(Nc1cccc(-c2cn3cccnc3n2)c1)Nc1ccccc1F | inactive: -0.4%
83 | O=C(N/N=C/c1c(O)n(Cc2ccc(F)cc2)c(=S)[nH]c1=O)c1ccncc1 | inconclusive: -45.5%
84 | CCOC(=O)C1=CN(CC)S(=O)(=O)NC1c1ccc2ccccc2c1 (centres undefined) | inactive: -0.8%
85 | O=C(O)C(CCCCNS(=O)(=O)c1ccc(F)cc1)NS(=O)(=O)c1ccc(F)cc1 (centres undefined) | inactive: -3.3% and inactive: -2.4%
86 | CSCCNC(=O)Nc1c(-c2c(Cl)cccc2Cl)noc1C | inconclusive: 80.2%
87 | O=C(O)c1ccccc1-c1ccccc1C(=O)NCCc1ccccc1 | inconclusive: -7.8%
88 | Cc1cc(C)c2c(SC(C)C)nc(N)nc2n1 | inconclusive: 19.7%
89 | CCCCn1c(N)c(N(CC(C)C)C(=O)c2cc3ccccc3cc2OC)c(=O)[nH]c1=O | inactive: -6.4%
